Measurements reported in PubChem BioAssay AID248 (DTP/NCI, 2004).
The list does not hold the whole screen: it gathers tests that were run many times, whatever their T/C, doses with no T/C, and many T/C values between a quarter and a half above the control. Other doses and runs of a compound stand elsewhere. T/C: endpoint of the treated group in % of that of the vehicle group. Some entries give survivors of the animals treated and no T/C: the source holds a T/C of zero for them, seemingly a mark for toxic or unscored doses. Some survivor counts are full or nearly so, which does not show that the dose was tolerated: survival well below the control is almost never listed, so the zero probably covers shortened survival too. Survivors were counted at the toxicity check, usually on the fifth day, unless a day is given; later deaths do not show. Schedule codes are those of the source, taken here to give the interval after Q, in days (D) or hours (H), and the number of doses after X. Some schedules carry Z or #; the key to these is not given. Some entries were tested several times; their values stand side by side, smallest first. For survival time, the PubChem record calls one and a half times the control and up active, and a quarter to a half above the control has no call in these data; cut-offs in other NCI protocols can differ.

Test system: L1210 leukemia ip in BDF1 mice, survival T/C
Assay: NCI In Vivo Anticancer Drug Screen. Data for tumor model L1210 Leukemia (intraperitoneal) in B6D2F1 (BDF1) mice
Conditions: T/C endpoint: mean survival time, higher T/C = longer survival
[1] = dose: 200.0 mg/kg/injection, schedule: Q01DX009 (ip), vehicle: saline with Tween-80
[2] = dose: 300.0 mg/kg/injection, schedule: Q01DX001 (ip), vehicle: carboxymethylcellulose (CMC)
[3] = dose: 100.0 mg/kg/injection, schedule: Q01DX009 (ip), vehicle: Klucel (hydroxypropylcellulose) (HPC)
[4] = dose: 200.0 mg/kg/injection, schedule: Q01DX009 (ip), vehicle: Klucel (hydroxypropylcellulose) (HPC)
[5] = dose: 400.0 mg/kg/injection, schedule: Q04DX002 (ip), vehicle: Klucel (hydroxypropylcellulose) (HPC)
[6] = dose: 400.0 mg/kg/injection, schedule: Q04DX002 (ip), vehicle: saline with Tween-80
[7] = dose: 200.0 mg/kg/injection, schedule: Q01DX001 (ip), vehicle: saline

C1CSP(SCCSP2SCCS2)S1
survivor count (dose: 50.0 mg/kg/injection, schedule: Q01DX009 (ip), vehicle: carboxymethylcellulose (CMC)): 3 of 3
T/C (dose: 100.0 mg/kg/injection, schedule: Q04DX002 (ip), vehicle: carboxymethylcellulose (CMC)): 87, 93, 94, 103 % of control
survivor count (dose: 400.0 mg/kg/injection, schedule: Q04DX002 (ip), vehicle: carboxymethylcellulose (CMC)): 0 of 3 and 3 of 6

Cc1ccnc(NC(C#N)c2ccccc2)c1 (stereo not drawn)
survivor count (dose: 100.0 mg/kg/injection, schedule: Q01DX009 (ip), vehicle: saline with Tween-80): 0 of 3
survivor count [1]: 0 of 3

O=c1c(O)c(O)c1=O
survivor count [2]: 1 of 6

O=C(Nc1ccc(C2=NCCN2)cc1)c1cc(C(=O)Nc2ccc(C3=NCCN3)cc2)cc(C(=O)Nc2ccc(C3=NCCN3)cc2)c1
survivor count (dose: 2.8 mg/kg/injection, schedule: Q01DX Z (ip), vehicle: saline): 2 of 6

O=C(Nc1ccccc1)Oc1c(Cl)cc(Cl)c(Cl)c1[N+](=O)[O-]
survivor count [3]: 2 of 6
survivor count [4]: 2 of 6
survivor count (dose: 400.0 mg/kg/injection, schedule: Q01DX009 (ip), vehicle: Klucel (hydroxypropylcellulose) (HPC)): 0 of 6

N#Cc1ccc(Cl)cc1
survivor count [5]: 0 of 3

C=C1C(=O)O[C@H]2C1[C@H](OC(=O)/C(C)=C\COC(C)=O)C[C@]1(CO1)[C@@H]1[C@H](O)[C@H]3O[C@@]3(C)[C@@H]12 (stereo partly drawn)
survivor count (dose: 50.0 mg/kg/injection, schedule: Q01DX009 (ip), vehicle: saline): 1 of 3
survivor count (dose: 100.0 mg/kg/injection, schedule: Q01DX009 (ip), vehicle: saline): 0 of 3
survivor count (dose: 200.0 mg/kg/injection, schedule: Q01DX009 (ip), vehicle: saline): 0 of 3
survivor count (dose: 200.0 mg/kg/injection, schedule: Q04DX002 (ip), vehicle: other): 0 of 3
survivor count (dose: 400.0 mg/kg/injection, schedule: Q04DX002 (ip), vehicle: other): 0 of 3

Nc1ccc(N(CCCl)CCN(CCCl)c2ccc(N)cc2)cc1
T/C (dose: 3.0 mg/kg/injection, schedule: Q01DX009 (ip), vehicle: saline): 143 % of control
T/C (dose: 4.4 mg/kg/injection, schedule: Q01DX009 (ip), vehicle: carboxymethylcellulose (CMC)): 127 % of control
T/C (dose: 5.0 mg/kg/injection, schedule: Q01DX009 (ip), vehicle: carboxymethylcellulose (CMC)): 135 % of control
T/C (dose: 6.6 mg/kg/injection, schedule: Q01DX001 (ip), vehicle: carboxymethylcellulose (CMC)): 128 % of control
T/C (dose: 6.6 mg/kg/injection, schedule: Q01DX009 (ip), vehicle: carboxymethylcellulose (CMC)): 125 % of control
T/C (dose: 6.6 mg/kg/injection, schedule: Q01DX009 (ip), vehicle: saline): 143 % of control
T/C (dose: 10.0 mg/kg/injection, schedule: Q01DX001 (ip), vehicle: carboxymethylcellulose (CMC)): 125 and 141 % of control
survivor count (dose: 10.0 mg/kg/injection, schedule: Q01DX009 (ip), vehicle: carboxymethylcellulose (CMC)): 4 of 6
survivor count (dose: 30.0 mg/kg/injection, schedule: Q01DX001 (ip), vehicle: saline): 2 of 6
survivor count (dose: 60.0 mg/kg/injection, schedule: Q01DX001 (ip), vehicle: saline): 0 of 6
survivor count (dose: 75.0 mg/kg/injection, schedule: Q01DX001 (ip), vehicle: carboxymethylcellulose (CMC)): 0 of 6
survivor count (dose: 120.0 mg/kg/injection, schedule: Q01DX001 (ip), vehicle: saline): 0 of 6
survivor count (dose: 150.0 mg/kg/injection, schedule: Q01DX001 (ip), vehicle: carboxymethylcellulose (CMC)): 0 of 6
survivor count [2]: 0 of 6

COc1ccccc1NC(=S)NCc1ccco1
survivor count [6]: 1 of 3

CCN(CCO)CC(C)Nc1ccc([N+](=O)[O-])c2sc3ccccc3c(=O)c12 (stereo not drawn)
T/C (dose: 12.0 mg/kg/injection, schedule: Q01DX Z (ip), vehicle: saline): 140 % of control
T/C (dose: 18.0 mg/kg/injection, schedule: Q01DX Z (ip), vehicle: saline): 133 % of control
T/C (dose: 61.0 mg/kg/injection, schedule: Q01DX Z (ip), vehicle: saline): 138 % of control
survivor count (dose: 135.0 mg/kg/injection, schedule: Q01DX Z (ip), vehicle: saline): 7 of 7
T/C [7]: 130 % of control
survivor count (dose: 270.0 mg/kg/injection, schedule: Q01DX Z (ip), vehicle: other): 6 of 6
survivor count (dose: 600.0 mg/kg/injection, schedule: Q01DX001 (ip), vehicle: saline): 3 of 4
survivor count (dose: 900.0 mg/kg/injection, schedule: Q01DX001 (ip), vehicle: saline): 2 of 4

[O-][n+]1ccc2ccccc2c1
survivor count [5]: 1 of 3
survivor count (dose: 400.0 mg/kg/injection, schedule: Q04DX003 (ip), vehicle: saline): 0 of 6

CCC(=O)Nc1cccc2ccccc12
survivor count [3]: 6 of 6
survivor count [4]: 0 of 6
survivor count (dose: 400.0 mg/kg/injection, schedule: Q04DX003 (ip), vehicle: Klucel (hydroxypropylcellulose) (HPC)): 1 of 6

O=Nc1c(O)[nH]c(=O)[nH]c1=O
survivor count (dose: 400.0 mg/kg/injection, schedule: Q01DX001 (ip), vehicle: Klucel (hydroxypropylcellulose) (HPC)): 0 of 6

c1cc(C[N+]23CN4CN(CN(C4)C2)C3)cs1
survivor count (dose: 100.0 mg/kg/injection, schedule: Q04DX003 (ip), vehicle: saline): 6 of 6

CC(C)=CN1CCCCC1
survivor count [1]: 2 of 6
survivor count (dose: 400.0 mg/kg/injection, schedule: Q04DX003 (ip), vehicle: saline with Tween-80): 0 of 6

CCS(=O)(=O)OCCCl
survivor count [3]: 3 of 6
survivor count [4]: 2 of 6
survivor count (dose: 200.0 mg/kg/injection, schedule: Q04DX002 (ip), vehicle: Klucel (hydroxypropylcellulose) (HPC)): 0 of 3
survivor count (dose: 400.0 mg/kg/injection, schedule: Q01DX001 (ip), vehicle: carboxymethylcellulose (CMC)): 0 of 6
survivor count [5]: 0 of 3

CCOC(=O)Nc1cc(NC(C)CCCN(CC)CC)c2ncc(-c3ccc(Cl)c(Cl)c3)nc2n1 (stereo not drawn) (tested in a mixture with another compound)
survivor count [7]: 0 of 6
survivor count (dose: 400.0 mg/kg/injection, schedule: Q01DX001 (ip), vehicle: saline): 0 of 6

N#CCC(=O)NCc1ccco1
survivor count [1]: 0 of 3
survivor count [6]: 0 of 3

COc1cc(C2=N/C(=C\c3cc(Br)cc(Br)c3O)C(=O)O2)cc(OC)c1OC
survivor count (dose: 100.0 mg/kg/injection, schedule: Q04DX002 (ip), vehicle: saline with Tween-80): 3 of 3

CC(=O)N(C(C)=O)c1ccc(C)cc1
survivor count (dose: 400.0 mg/kg/injection, schedule: Q01DX009 (ip), vehicle: saline): 1 of 6

CN(C)S(=O)(=O)c1ccc(NC(=O)CI)cc1
survivor count (dose: 50.0 mg/kg/injection, schedule: Q01DX009 (ip), vehicle: saline with Tween-80): 3 of 6
survivor count (dose: 100.0 mg/kg/injection, schedule: Q01DX001 (ip), vehicle: other): 0 of 6
survivor count (dose: 200.0 mg/kg/injection, schedule: Q01DX001 (ip), vehicle: other): 0 of 6
survivor count (dose: 400.0 mg/kg/injection, schedule: Q01DX001 (ip), vehicle: other): 0 of 6
